Results: the supplement of paper PMC4749390
Counter-ions that a name gives are not always drawn. This is one part of the list. Repeats in this data set agree poorly, so a single value says little.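 JEG3 cells stably express tetracycline-inducible wild-type human LRH-1, a highly sumoylated nuclear receptor. SUMO-sensitive transcripts APOC3 and MUC1, increased by SUMO-deficient LRH-1 or UBC9 knockdown, were quantified by RT-qPCR relative to TBP and DMSO controls. Primary hits had robust Z-scores above +2 or below -2, before toxicity and TBP filtering.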

Test system: JEG3 expressing hLRH-1
Experiment: APOC3 transcript change (ddCt vs TBP and DMSO), Z-score over library; higher = higher APOC3 expression
Conditions: 10 µM; time (hr): 24

Row | Structure (SMILES) | APOC3 transcript change (Z-score)
1 | Cc1ccc(N(CC2=NCCN2)c2cccc(O)c2)cc1 [Phentolamine mesylate] | -0.422
2 | CC(C)CC(NC(=O)C(C)NC(=O)CNC(=O)C(NC=O)C(C)C)C(=O)NC(C)C(=O)NC(C(=O)NC(C(=O)NC(C(=O)NC(Cc1c[nH]c2ccccc12)C(=O)NC(CC(C)C)C(=O)NC(Cc1c[nH]c2ccccc12)C(=O)NC(CC(C)C)C(=O)NC(Cc1c[nH]c2ccccc12)C(=O)NC(CC(C)C)C(=O)NC(Cc1c[nH]c2ccccc12)C(=O)NCCO)C(C)C)C(C)C)C(C)C (configuration not stated) [gramicidin (gramicidin a shown)] | -0.0693
3 | CC#C[C@]1(O)CC[C@H]2[C@@H]3CCC4=CC(=O)CCC4=C3[C@@H](c3ccc(N(C)C)cc3)C[C@@]21C [mifepristone] | 0.165
4 | O=c1ccc2ccccc2o1 [coumarin] | -0.774
5 | CC(CN(C)C)CN1c2ccccc2Sc2ccccc21 (configuration not stated) [trimeprazine tartrate] | 0.441
6 | CC(C)n1c(/C=C/[C@@H](O)C[C@@H](O)CC(=O)O)c(-c2ccc(F)cc2)c2ccccc21 [fluvastatin] | 1.29
7 | COc1cc(NS(=O)(=O)c2ccc(N)cc2)ncn1 [sulfamonomethoxine] | -0.368
8 | CC1(C)O[C@@H]2C[C@H]3[C@@H]4C[C@H](F)C5=CC(=O)C=C[C@]5(C)[C@@]4(F)[C@@H](O)C[C@]3(C)[C@]2(C(=O)CO)O1 [fluocinolone acetonide] | -0.777
9 | Cc1cc(C)nc(NS(=O)(=O)c2ccc(N)cc2)n1 [sulfamethazine] | 0.261
10 | CC(=O)Nc1c(I)c(NC(C)=O)c(I)c(C(=O)O)c1I [diatrizoic acid] | 0.304
11 | C[C@@H]1C/C=C/C=C/C=C/C=C/[C@H](O[C@@H]2O[C@H](C)[C@@H](O)[C@H](N)[C@@H]2O)C[C@@H]2O[C@](O)(C[C@@H](O)C[C@H]3O[C@@H]3/C=C/C(=O)O1)C[C@H](O)[C@H]2C(=O)O [natamycin] | -0.35
12 | CC(C)[N+]1(C)C2CC[C@H]1C[C@@H](OC(=O)C(CO)c1ccccc1)C2 (some centres not stated) [ipratropium bromide] | -0.101
13 | O=C(O)P(=O)(O)O [foscarnet sodium] | -0.745
14 | CC(C)(CO)C(O)C(=O)NCCC(=O)NCCSSCCNC(=O)CCNC(=O)C(O)C(C)(C)CO (configuration not stated) [pantethine] | -1.06
15 | O=C(Oc1cccc2cccnc12)c1ccccc1 [benzoxiquine] | 1.72
16 | CCOC(=O)Nc1nc2ccccc2[nH]1 [lobendazole] | 0.806
17 | CC1Cc2ccccc2N1NC(=O)c1ccc(Cl)c(S(N)(=O)=O)c1 (configuration not stated) [indapamide] | -1.11

Another view of 5 compounds above.

| Row | Structure (SMILES) | APOC3 transcript change (Z-score) |
| --- | --- | --- |
| 6 | CC(C)n1c(/C=C/[C@@H](O)C[C@@H](O)CC(=O)O)c(-c2ccc(F)cc2)c2ccccc21 [fluvastatin] | 1.29 |
| 7 | COc1cc(NS(=O)(=O)c2ccc(N)cc2)ncn1 [sulfamonomethoxine] | -0.368 |
| 8 | CC1(C)O[C@@H]2C[C@H]3[C@@H]4C[C@H](F)C5=CC(=O)C=C[C@]5(C)[C@@]4(F)[C@@H](O)C[C@]3(C)[C@]2(C(=O)CO)O1 [fluocinolone acetonide] | -0.777 |
| 9 | Cc1cc(C)nc(NS(=O)(=O)c2ccc(N)cc2)n1 [sulfamethazine] | 0.261 |
| 10 | CC(=O)Nc1c(I)c(NC(C)=O)c(I)c(C(=O)O)c1I [diatrizoic acid] | 0.304 |
